US12420242B1 (KING SAUD UNIVERSITY, priority 2025, dated 2025)
At least one read-out could not be matched to a standard name with certainty.

Tests used:
[1] = Solubility parameter δ of the compounds involved in the separation; format: physicochemical
[2] = Table 1; cited from earlier work

Compound: c1ccsc1 [thiophene]
- Δδ (difference of solubility parameters, affinity) ([1]; thiophene and n-heptane): 5.0 MPa^0.5
- Δδ (difference of solubility parameters, affinity) ([1]; thiophene and water): 28.28 MPa^0.5
- Δδ (difference of solubility parameters, affinity) ([1]; thiophene with the polyvinyl acetate/water membrane): 0.48 MPa^0.5
- Solubility parameter, δ [2]: 20.10 (MPa)^0.5
